The text below walks through data of patent publication US12618845B2, “Methods and compositions for protein sequencing” (Quantum-Si Incorporated, priority 2018, dated 2026).

Where two headings read alike, the source gives them in different places.

The subject of the data set is peptide substrates. It is filed as biochemical. Particulars: RT/0.5 hr; for Pdt, share of −3 product / Pdt, share of −4 product: substrate […]1 (SEQ ID NO: 13), 300 μM Peptide, 8 μM enzyme.
[1] abbreviates: 10 mM Mg(OAc)2, 50 mM MOPS pH 8, 60 mM KOAc.

B1: hTET: Pyrococcus horikoshii TET aminopeptidase, SEQ ID NO: 59 (protein, listed as Pyrococcus horikoshii)
chain: MEVRNMVDYELLKKVVEAPGVSGYEFLGIRDVVIEEIKDYVDEVKVDKLGNVIAHKKGEGPKVMIAAHMDQIGLMVTHIEKNGFLRVAPIGGVDPKTLIAQRFKVWIDKGKFIYGVGASVPPHIQKPEDRKKAPDWDQIFIDIGAESKEEAEDMGVKIGTVITWDGRLERLGKHRFVSIAFDDRIAVYTILEVAKQLKDAKADVYFVATVQEEVGLRGARTSAFGIEPDYGFAIDVTIAADIPGTPEHKQVTHLGKGTAIKIMDRSVICHPTIVRWLEELAKKHEIPYQLEILLGGGTDAGAIHLTKAGVPTGALSVPARYIHSNTEVVDERDVDATVELMTKALENIHELKI
Consider B1, for which the Pdt result (cleavage product, substrate […]1 (SEQ ID NO: 156), 1 mM Peptide, 1.0 μM enzyme, 10 mM Mg(OAc)2, 50 mM MOPS pH 8, 60 mM KOAc) is listed as “WADDDWK”.

B2: VPr: Vibrio proteolyticus aminopeptidase (protein)
chain: MPPITQQATVTAWLPQVDASQITGTISSLESFTNRFYTTTSGAQASDWIASEWQALSASLPNASVKQVSHSGYNQKSVVMTITGSEAPDEWIVIGGHLDSTIGSHTNEQSVAPGADDDASGIAAVTEVIRVLSENNFQPKRSIAFMAYAAEEVGLRGSQDLANQYKSEGKNVVSALQLDMTNYKGSAQDVVFITDYTDSNFTQYLTQLMDEYLPSLTYGFDTCGYACSDHASWHNAGYPAAMPFESKFNDYNPRIHTTQDTLANSDPTGSHAKKFTQLGLAYAIEMGSATGDTPTPGNQ
With B2, under setting [1], the “Pdt, share of −3 product” value was 30% −3, and the “Pdt, share of −4 product” value is given as 70% −4. For the same molecule, under “50/50 MOPS Mg buffer/RB1”, the “Pdt, share of −3 product” value is reported as 70% −3, and the “Pdt, share of −4 product” value was 30% −4.
